In patent US20250003940A1, “BIOSENSOR, BIOSENSOR COMPONENTS, AND USE THEREOF” (VICTORIA LINK LIMITED, priority 2021, published 2025):
For at least one compound, name, drawing or mass did not settle the structure.

Target: T1, Helicobacter pylori glutamine synthetase (HpGS), SEQ ID NO: 2 (Helicobacter pylori, UniProt P94845)
T1 construct: BpsA-coupled assay
T1 sequence (P94845 1-481): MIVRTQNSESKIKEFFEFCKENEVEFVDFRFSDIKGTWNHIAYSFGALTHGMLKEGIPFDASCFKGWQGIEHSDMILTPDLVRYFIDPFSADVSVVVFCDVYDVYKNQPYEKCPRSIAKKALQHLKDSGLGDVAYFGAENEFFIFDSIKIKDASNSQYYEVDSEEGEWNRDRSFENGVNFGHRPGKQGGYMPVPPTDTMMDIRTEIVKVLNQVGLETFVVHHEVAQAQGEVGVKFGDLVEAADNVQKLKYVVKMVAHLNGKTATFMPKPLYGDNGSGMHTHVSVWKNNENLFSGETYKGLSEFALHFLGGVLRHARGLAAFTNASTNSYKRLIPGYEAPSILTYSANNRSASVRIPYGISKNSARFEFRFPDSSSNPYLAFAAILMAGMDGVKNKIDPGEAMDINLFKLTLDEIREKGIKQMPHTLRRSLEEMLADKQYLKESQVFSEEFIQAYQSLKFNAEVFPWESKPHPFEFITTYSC
Experiment: GS-BpsA coupled assay kinetics of HpGS for glutamate and ammonium (A590, indigoidine)
Assay type: biochemical
Details: 37° C., coupled with BpsA
Method: FIG. 6A: Sigmoidal kinetics data obtained when the GS from Helicobacter pylori (HpGS) is assayed in the presence of various concentrations of its substrate, glutamate. The concentration of GS and BpsA is 3 μM and 6 μM respectively. An optimised condition for the GS-BpsA assay was used. A range of glutamate concentrations (0-900 μM) was used in the assay. Rates were measured through the increase in absorbance at 590 nm at 37° C. Data are the mean values of three replicates and error bars indicate the standard error of the mean.
FIG. 6B: Sigmoidal kinetics data obtained when HpGS is assayed in the presence of various concentrations of its substrate, ammonium. The concentration of GS and BpsA is 3 μM and 6 μM respectively. An optimised condition for the GS-BpsA assay was used. A range of 0-900 μM NH4Cl was used in the assay. Rates were measured through the increase in absorbance at 590 nm at 37° C. […]
Optimised ATP/pH and Mg^2+ conditions were utilised with varying concentrations of KCl (FIG. 5). […] The final optimised reaction mixture for the GS-BpsA assay was determined to be 100 mM Tris Base pH 11.4, 15 mM ATP, 20 mM MgCl2, and 10 mM KCl.
Using optimised assay conditions for the GS-BpsA coupled assay, kinetics data for HpGS were collected for its substrates glutamate and ammonium. […] Rates were measured through the increase in absorbance for 5 minutes at 590 nm and 37° C. […]

SMILES: N[C@@H](CCC(=O)O)C(=O)O [Glutamate, glutamate]
- kcat (estimated from Vmax): 0.3 ± 0.01 s⁻¹
- Hill coefficient (Hill equation): 1.5
